# Screening data, single-dose tests

Sequences of proteins named here, by UniProt entry; tags and fusion partners are left off. Residues count along the entry.
UniProt P9WFT3, whole entry: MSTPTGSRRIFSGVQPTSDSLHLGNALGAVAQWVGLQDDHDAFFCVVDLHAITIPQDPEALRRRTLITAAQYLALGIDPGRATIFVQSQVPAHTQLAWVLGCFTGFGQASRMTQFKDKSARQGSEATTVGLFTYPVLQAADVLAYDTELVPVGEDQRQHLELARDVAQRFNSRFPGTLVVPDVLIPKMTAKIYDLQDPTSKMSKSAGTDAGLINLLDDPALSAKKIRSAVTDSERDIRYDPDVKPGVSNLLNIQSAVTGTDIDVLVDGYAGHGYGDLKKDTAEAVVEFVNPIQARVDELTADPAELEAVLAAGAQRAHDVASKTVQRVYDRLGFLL
UniProt Q8IDJ8, 1-583: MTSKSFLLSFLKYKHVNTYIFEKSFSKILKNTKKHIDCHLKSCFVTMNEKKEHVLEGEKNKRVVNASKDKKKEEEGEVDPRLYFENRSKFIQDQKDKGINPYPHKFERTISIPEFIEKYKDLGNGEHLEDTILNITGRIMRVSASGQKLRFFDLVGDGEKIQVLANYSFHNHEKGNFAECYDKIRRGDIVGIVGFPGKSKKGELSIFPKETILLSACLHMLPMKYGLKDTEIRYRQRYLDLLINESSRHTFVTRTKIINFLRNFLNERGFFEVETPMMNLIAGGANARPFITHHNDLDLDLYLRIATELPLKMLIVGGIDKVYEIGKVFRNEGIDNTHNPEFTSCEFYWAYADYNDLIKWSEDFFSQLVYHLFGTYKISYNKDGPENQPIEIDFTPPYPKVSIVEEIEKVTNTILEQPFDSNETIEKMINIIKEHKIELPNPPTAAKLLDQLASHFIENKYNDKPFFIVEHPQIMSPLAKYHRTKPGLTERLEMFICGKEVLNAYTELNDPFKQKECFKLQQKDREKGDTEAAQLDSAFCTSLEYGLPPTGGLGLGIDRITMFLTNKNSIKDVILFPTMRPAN
UniProt P9WNZ1, whole entry: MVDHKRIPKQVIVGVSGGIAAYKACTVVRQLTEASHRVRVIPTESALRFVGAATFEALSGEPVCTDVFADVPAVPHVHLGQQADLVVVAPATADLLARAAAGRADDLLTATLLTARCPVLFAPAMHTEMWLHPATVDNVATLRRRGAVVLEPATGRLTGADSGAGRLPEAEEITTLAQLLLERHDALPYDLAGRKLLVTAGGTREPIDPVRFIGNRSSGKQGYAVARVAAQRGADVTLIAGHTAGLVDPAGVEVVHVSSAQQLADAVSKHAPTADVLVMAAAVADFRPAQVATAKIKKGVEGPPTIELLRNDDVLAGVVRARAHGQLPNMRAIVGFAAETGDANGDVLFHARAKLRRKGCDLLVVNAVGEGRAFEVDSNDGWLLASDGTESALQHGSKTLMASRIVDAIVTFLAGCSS
UniProt P9WPC5, whole entry: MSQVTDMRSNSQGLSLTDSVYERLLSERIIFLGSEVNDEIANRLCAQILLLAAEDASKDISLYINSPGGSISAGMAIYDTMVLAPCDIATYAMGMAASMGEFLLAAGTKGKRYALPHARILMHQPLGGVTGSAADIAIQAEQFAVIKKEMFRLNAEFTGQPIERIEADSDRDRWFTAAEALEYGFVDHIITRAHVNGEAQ
UniProt P9WPC3, whole entry partner: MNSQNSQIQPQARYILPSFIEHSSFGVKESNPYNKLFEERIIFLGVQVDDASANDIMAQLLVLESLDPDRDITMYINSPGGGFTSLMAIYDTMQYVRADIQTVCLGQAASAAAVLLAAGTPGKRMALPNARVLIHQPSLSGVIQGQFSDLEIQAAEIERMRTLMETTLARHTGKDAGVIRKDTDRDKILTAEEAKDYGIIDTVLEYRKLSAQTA
UniProt Q4DA54, 1-478: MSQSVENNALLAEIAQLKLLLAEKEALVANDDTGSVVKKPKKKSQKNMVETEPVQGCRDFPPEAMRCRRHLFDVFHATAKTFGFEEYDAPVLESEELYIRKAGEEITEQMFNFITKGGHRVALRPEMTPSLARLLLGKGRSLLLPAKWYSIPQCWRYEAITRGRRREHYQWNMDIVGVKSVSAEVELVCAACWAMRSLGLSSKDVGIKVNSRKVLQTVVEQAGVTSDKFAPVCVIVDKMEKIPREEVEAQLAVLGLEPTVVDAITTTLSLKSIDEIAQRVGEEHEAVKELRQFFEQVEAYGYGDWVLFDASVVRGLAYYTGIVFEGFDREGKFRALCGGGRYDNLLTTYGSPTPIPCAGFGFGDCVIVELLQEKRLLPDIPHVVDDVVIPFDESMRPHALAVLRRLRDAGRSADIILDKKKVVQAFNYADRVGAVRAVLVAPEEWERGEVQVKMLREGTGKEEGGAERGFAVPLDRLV

MtTrpRS: 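Tryptophan-tRNA ligase, Mycobacterium tuberculosis (UniProt P9WFT3). Enzyme assay of tryptophanyl-tRNA synthetase; the read-out is not stated. Compounds at 10 µM. Higher most likely means stronger inhibition; the record gives no direction and few retests gave an IC50. Of about 65,000 compounds tested this way, about 64 (0.098%) reached 50% or more in at least one test.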
PfKRS1: 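Lysine-tRNA ligase, Plasmodium falciparum 3D7 (UniProt Q8IDJ8). Enzyme assay of the cytosolic lysyl-tRNA synthetase in 384-well plates, read by luminescence. Compounds at 30 µM. Higher reads as stronger inhibition, judged from the few compounds that gave an IC50. Of about 69,000 compounds tested this way, about 49 (0.071%) reached 50% or more in at least one test.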
CoaBC: 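Enzyme assay of CoaBC with a phosphate dye (Biomol Green) read at 650 nm. Target: Coenzyme A biosynthesis protein CoaBC, Mycobacterium tuberculosis (UniProt P9WNZ1). Tested at 30 µM. Direction is inferred from only a few compounds that gave an IC50; most scored high, so higher reads as stronger inhibition. Most strong results did not repeat in a second test. Of about 67,000 compounds tested this way, about 40 (0.06%) reached 50% or more in at least one test.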
ClpP1P2: 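ClpP1P2, Mycobacterium tuberculosis (UniProt P9WPC5 and UniProt P9WPC3). Protease assay of ClpP1P2, read by the AMC dye that it sets free. Tested at 50 µM. Higher reads as stronger inhibition, judged from the few compounds that gave an IC50. Most other retested compounds had strongly negative values. Size under these conditions: about 69,000 compounds, about 10 of them at 50% or above in at least one test.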
TcHisRS: 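Enzyme assay of histidyl-tRNA synthetase; the read-out is not stated. Target: Histidine-tRNA ligase, Trypanosoma cruzi CL Brener (UniProt Q4DA54). Concentration: 30 µM. The record gives no direction; compounds that gave an IC50 in retests scored well above the rest, so higher reads as stronger inhibition. Of about 69,000 compounds tested this way, about 31 (0.045%) reached 50% or more in at least one test.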

The filed quantity is “Percent Effect” (%). How 0% and 100% were set is not recorded. Most values in the screen are low, and negative values occur. The compounds are a random part of those screened. A dash means the value is not listed here; it may have been measured.

| compound | MtTrpRS | PfKRS1 | CoaBC | ClpP1P2 | TcHisRS |
|---|---|---|---|---|---|
| `Cc1nc(CCNC(=O)C2CC(=O)N(C(C)(C)C)C2)sc1C` (stereo not drawn) | -3.701 | 0.5145 | 4.086 | -3.787 | -0.8264 |
| `O=C(Nc1ccc(CC(=O)N2CCCC2)cc1)NC1CC1` | 6.641 | 3.352 | -3.148 | -1.698 | -4 |
| `CNC(=O)[C@@H]1CCO[C@@H]2CCN(C3CCOCC3)C[C@@H]21` | -0.4882 | 7.036 | 1.629 | -18.35 | 8.824 |
| `CC(c1ccco1)N(C)Cc1cccc(C(=O)Nc2nccn2C)c1` (stereo not drawn) | 0.4823 | 3.555 | 1.823 | 12.63 | -3.96 |
| `CN1CCN(C2COC3(CCN(Cc4ccsc4)CC3)C2)CC1` (stereo not drawn) | 1.876 | -3.762 | 4.25 | -1.378 | 13.73 |
| `Cn1c(C(=O)N2CCC(C(N)=O)C2)c(Cl)c2ccccc21` (stereo not drawn) | 2.346 | 4.228 | 0.6242 | -8 | 7.143 |
| `COc1ccc(OCC2CCCN(Cc3ccncc3)C2)cc1` (stereo not drawn) | 3.047 | 4.903 | 3.929 | -6.824 | 8.19 |
| `Cc1cc(NC(=O)NCCc2ccsc2)n(C)n1` | 3.223 | 3.717 | 3.376 | 4.803 | -0.813 |
| `Cc1cnn(CCCNCc2csc(COc3ccccc3)n2)c1` | -1.25 | 6.621 | 18.97 | -4.838 | 15.03 |
| `Cc1nn(C)c(N2CCCN(C)CC2)c1CNC(=O)CC1CCCC1` | 2.562 | 6.854 | -6.075 | -5.427 | 4.867 |
| `Cc1cc(C)n(CC(C)Nc2ncnc3c2CCNC3)n1` (stereo not drawn) | -0.122 | 1.797 | -0.3589 | -6.473 | 2.146 |
| `CSCC[C@H](NC(=O)Cn1ccc2ccc(Cl)cc21)C(=O)O` | 4.552 | 2.934 | 0.7576 | 1.135 | 2.924 |
| `CCc1ccc(CN2CCC3(CC2)CNC(=O)CO3)o1` | -4.69 | 0.2529 | 1.863 | -0.02147 | -1.604 |
| `CC(C)c1nc(CN2CCCCC2Cn2cncn2)cs1` (stereo not drawn) | 3.992 | -2.149 | 1.677 | 14.18 | 9.77 |
| `CC(C)NS(=O)(=O)c1cc(C(=O)O)cc(-c2ccccc2F)c1` | 4.837 | 9.021 | 3.433 | 2.412 | -1.163 |
| `Cc1nc(C2CCCN2CCCNS(C)(=O)=O)no1` (stereo not drawn) | -3.459 | -0.5457 | 5.319 | 16.73 | 2.662 |
| `CCn1ncnc1CN1CCC(CNC(=O)c2cccnc2O)C1` (stereo not drawn) | 3.668 | 6.664 | 3.49 | -11.14 | 7.538 |
| `CCc1ncc2c(n1)CN(C(=O)CCCc1ccc(OC)cc1)C2` | -0.9054 | 0.6264 | -2.675 | -0.7817 | 5.759 |
| `Cc1ccc2nc(C3CCCN3Cc3cccc(CCN)c3)[nH]c2c1` (stereo not drawn) | -5.74 | 5.806 | 3.342 | -0.5385 | 8.939 |
| `COC1CCN(S(=O)(=O)NCC2COc3ccccc3C2)CC1` (stereo not drawn) | -3.422 | 5.194 | 2.284 | -7.732 | 6.726 |
| `CCNc1cc2c(nn1)CCN(C(=O)Cc1ccc3c(c1)CCO3)C2` | -0.5187 | 9.203 | -2.947 | 5.074 | 13.79 |
| `O=C(CC1CCCC1)NCCS(=O)(=O)N1CCN(c2ccccn2)CC1` | -0.8043 | 2.007 | 9.742 | 10.37 | 2.646 |
| `Cc1n[nH]cc1CNC1CCN(c2cccc(C(F)(F)F)c2)CC1` | -1.967 | 2.624 | 0.2481 | -9.232 | 9.827 |
| `O=C(Nc1nncs1)NC1CCN(Cc2ccccc2)C1` (stereo not drawn) | -12.97 | -0.08701 | 4.211 | -24.82 | 2.639 |
| `CC(C)(C)c1oc(C(N)=O)cc1CN1CCCCC(N)C1` (stereo not drawn) | 1.002 | 1.917 | 1.827 | -17.93 | 1.786 |
| `CCCC(=O)N(C)C(c1cccc(F)c1)c1ccccn1` (stereo not drawn) | -2.611 | -1.84 | -1.912 | -12.24 | 0 |
| `CC(C)NC(=O)C1CN(C(=O)COc2ccccc2)CC12CCOCC2` (stereo not drawn) | 2.063 | 3.858 | 0.6085 | 10.08 | 14.29 |
| `Cc1csc(C2CCCCN2C(=O)CN(C)C(C)C)n1` (stereo not drawn) | 9.029 | -2.72 | -8.311 | 6.532 | 4.274 |
| `CCCC1COCCN1Cc1ccc(NC(C)=O)cc1` (stereo not drawn) | 4.021 | 3.935 | 7.753 | -5.141 | 0.5291 |
| `Cc1csc(N2CCN(CC(=O)N3CCCC3)CC2C)n1` (stereo not drawn) | -0.6773 | 0.8043 | 1.619 | -43.87 | 3.79 |
| `c1ccc(-n2cc(CNC3CCc4ncnn4C3)nn2)cc1` (stereo not drawn) | 0.6685 | 1.265 | 2.632 | -4.327 | 4.985 |
| `CCc1nc(CN2CCCN(C(=O)CCOC(C)C)CC2)cs1` | -1.557 | -0.5483 | 9.091 | -20.85 | 10.95 |
| `CN(Cc1ccc2c(c1)OCO2)C(=O)c1ccc(C2CCCO2)s1` (stereo not drawn) | -2.477 | 4.746 | - | 1.467 | 6.579 |
| `COCCCNC(=O)c1c[nH]c2ccc(OC)cc12` | 0.2018 | 2.612 | 7.056 | -1.232 | 2.174 |
| `CCS(=O)(=O)NCCNC(=O)c1cc(Cl)c2c(c1)OCCCO2` | 4.526 | 1.901 | 3.524 | -5.015 | -5.085 |
| `Cc1ccccc1CN1CC[C@@]2(O)CCN(C(=O)C3CCC3)C[C@H]2C1` | -3.526 | -0.5105 | 5.832 | 10.05 | 1.02 |
| `COc1cccc2c1OCCCN(Cc1ccc(C(N)=O)c(=O)[nH]1)C2` | 1.371 | 6.404 | 0.9677 | -5.325 | 2.463 |
| `CCOc1ccc(C(=O)N(CCOC)Cc2c(C)nn(CC)c2C)o1` | -4.329 | 1.2 | 6.638 | 5.057 | 1.136 |
| `COc1ccc(Cl)cc1NCC(=O)N(Cc1ccccn1)C1CC1` | -2.601 | 4.714 | -2.609 | 4.551 | 9.091 |
| `O=C(N[C@@H]1CNCCC[C@H]1O)c1ccc(OCCN2CCOCC2)cc1` | -4.744 | 2.923 | -0.6772 | 2.019 | 8.911 |
| `CCCN1CCN(C(=O)c2ccc3nc(C)oc3c2)[C@H]2CS(=O)(=O)C[C@H]21` | -1.568 | 5.374 | 0.7371 | -4.729 | 12.94 |

For reference, 4 entries once more:

compound,MtTrpRS,PfKRS1,CoaBC,ClpP1P2,TcHisRS
CCNc1cc2c(nn1)CCN(C(=O)Cc1ccc3c(c1)CCO3)C2,-0.5187,9.203,-2.947,5.074,13.79
CCn1ncnc1CN1CCC(CNC(=O)c2cccnc2O)C1 (stereo not drawn),3.668,6.664,3.49,-11.14,7.538
COC1CCN(S(=O)(=O)NCC2COc3ccccc3C2)CC1 (stereo not drawn),-3.422,5.194,2.284,-7.732,6.726
COc1ccc(Cl)cc1NCC(=O)N(Cc1ccccn1)C1CC1,-2.601,4.714,-2.609,4.551,9.091

From ChEMBL document CHEMBL3988442, “University of Dundee, Small-Polar-MMV Screening Library” (2021).